Test results taken from publication PMC8009681.

By UniProt entry, the sequences of proteins in these tests, tags left out. Where a name states a change or a piece, a line headed by the entry shows the natural chain unless it says otherwise.
UniProt Q9LXU1: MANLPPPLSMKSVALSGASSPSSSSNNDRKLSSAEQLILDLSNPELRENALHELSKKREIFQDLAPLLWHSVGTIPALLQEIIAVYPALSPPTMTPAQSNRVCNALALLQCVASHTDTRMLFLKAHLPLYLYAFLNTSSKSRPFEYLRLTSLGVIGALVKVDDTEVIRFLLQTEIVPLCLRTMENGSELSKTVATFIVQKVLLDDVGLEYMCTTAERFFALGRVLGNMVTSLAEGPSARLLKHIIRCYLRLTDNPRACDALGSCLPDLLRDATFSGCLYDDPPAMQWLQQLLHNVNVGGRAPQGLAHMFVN

Tests used:
[1] = molecular target: HA-YFP-NOT9B ΔPNB (Arabidopsis) (Arabidopsis thaliana); assay: co-IP; stable transgenic Arabidopsis seedlings, 4-day-old dark-grown, kept dark or FR light 5 hr then 5 min R (Pfr) or long-wavelength FR (Pr); total soluble protein, αGFP magnetic beads, IP buffer pH 7.8 with 450 mM NaCl, 4°C
[2] = molecular target: HA-YFP-NOT9B (Arabidopsis NOT9Box lines) (Arabidopsis thaliana) (UniProt Q9LXU1); assay: as above
[3] = molecular target: NLS-YFP-NOT9B (Arabidopsis) (Arabidopsis thaliana); assay: as above
[4] = molecular target: HA-YFP-NOT9B ΔGWB (Arabidopsis) (Arabidopsis thaliana); assay: as above
[5] = molecular target: HA-YFP-NOT9B (Arabidopsis NOT9Box lines) (Arabidopsis thaliana) (UniProt Q9LXU1); assay: co-IP; competition: Arabidopsis NOT9Box against NOT9Box NOT1 Mox seedlings, FR 5 hr then 5 min R (Pfr) or long-wavelength FR (Pr); αGFP magnetic beads; phyA/NOT9B ratio quantified from three replicates

binding [1]: no binding
binding [2]: binds
binding [3]: binds
binding [4]: binds
binding [5]: binds
B1: phyA (endogenous) (protein, UniProt P14712 1-1122)
chain: MSGSRPTQSSEGSRRSRHSARIIAQTTVDAKLHADFEESGSSFDYSTSVRVTGPVVENQPPRSDKVTTTYLHHIQKGKLIQPFGCLLALDEKTFKVIAYSENASELLTMASHAVPSVGEHPVLGIGTDIRSLFTAPSASALQKALGFGDVSLLNPILVHCRTSAKPFYAIIHRVTGSIIIDFEPVKPYEVPMTAAGALQSYKLAAKAITRLQSLPSGSMERLCDTMVQEVFELTGYDRVMAYKFHEDDHGEVVSEVTKPGLEPYLGLHYPATDIPQAARFLFMKNKVRMIVDCNAKHARVLQDEKLSFDLTLCGSTLRAPHSCHLQYMANMDSIASLVMAVVVNEEDGEGDAPDATTQPQKRKRLWGLVVCHNTTPRFVPFPLRYACEFLAQVFAIHVNKEVELDNQMVEKNILRTQTLLCDMLMRDAPLGIVSQSPNIMDLVKCDGAALLYKDKIWKLGTTPSEFHLQEIASWLCEYHMDSTGLSTDSLHDAGFPRALSLGDSVCGMAAVRISSKDMIFWFRSHTAGEVRWGGAKHDPDDRDDARRMHPRSSFKAFLEVVKTRSLPWKDYEMDAIHSLQLILRNAFKDSETTDVNTKVIYSKLNDLKIDGIQELEAVTSEMVRLIETATVPILAVDSDGLVNGWNTKIAELTGLSVDEAIGKHFLTLVEDSSVEIVKRMLENALEGTEEQNVQFEIKTHLSRADAGPISLVVNACASRDLHENVVGVCFVAHDLTGQKTVMDKFTRIEGDYKAIIQNPNPLIPPIFGTDEFGWCTEWNPAMSKLTGLKREEVIDKMLLGEVFGTQKSCCRLKNQEAFVNLGIVLNNAVTSQDPEKVSFAFFTRGGKYVECLLCVSKKLDREGVVTGVFCFLQLASHELQQALHVQRLAERTAVKRLKALAYIKRQIRNPLSGIMFTRKMIEGTELGPEQRRILQTSALCQKQLSKILDDSDLESIIEGCLDLEMKEFTLNEVLTASTSQVMMKSNGKSVRITNETGEEVMSDTLYGDSIRLQQVLADFMLMAVNFTPSGGQLTVSASLRKDQLGRSVHLANLEIRLTHTGAGIPEFLLNQMFGTEEDVSEEGLSLMVSRKLVKLMNGDVQYLRQAGKSSFIITAELAAANK

These are yes or no findings as the source states them, for the method shown. In cells and extracts the contact can be indirect. For some assays here: Binding calls can cover weak binding; strength is not graded here.
